Data from doi:10.1101/2021.08.01.454623.
Construct, isoform or probe ends are uncertain for at least one entry. For some of these results: The comparison behind a weaker result is the experiment's own reference, which may not be listed here. For some of these results: At least one verdict rests on a figure or table, not on a statement of the authors.

Key:
[1] = molecular target: CL11 (ribosomal protein L11 C-terminal domain, wild type) (Bacillus stearothermophilus) (UniProt P56210); assay: native ion mobility MS; conditions: 9- charge state of complex, RNA label form not stated
[2] = test system: CL11-E (early 10-amino-acid variant); assay: native ion mobility MS; conditions: 9- charge state of complex, RNA label form not stated
[3] = test system: CL11-E (early 10-amino-acid variant); assay: pull-down
[4] = test system: CL11-E (early 10-amino-acid variant); assay: EMSA; conditions: 20 mM Mg2+, 175 mM K+, 2 uM each
[5] = test system: CL11-M (mid-stage 14-amino-acid variant); assay: EMSA; conditions: 20 mM Mg2+, 175 mM K+, 2 uM each

Sequence | binding result [1] | binding result [2] | binding result ([3]; 40 to 50 C) | binding result ([3]; extreme pH) | binding result ([3]; no Mg2+ and K+) | binding result [4] | binding result [5]
GCCAGGAUGUAGGCUUAGAAGCAGCCAUCAUUUAAAGAAAGCGUAAUAGCUCACUGGU [biotinylated 58rRNA] | binds | binds | binds more weakly | binds more weakly | binds more weakly |  | 
GCCAGGAUGUAGGCUUAGAAGCAGCCAUCAUUUAAAGAAAGCGUAAUAGCUCACUGGU [f58rRNA (fluorescent 58rRNA)] |  |  |  |  |  | binds | binds
